These are yes or no findings as the source states them, for the method shown. Binding seen in cells or lysates may run through a third protein. Some entries that bind do so weakly or less than the wild type. For some assays here: Where a sequence is shown, tags or fusion partners need not be part of it.
How the values were obtained:
[1] = target: V5-tagged Notch1 extracellular domain (UniProt Q01705); test: co-IP; V5-tagged Notch1-ECD and Flag-tagged ligands (Jagged1 or Dll4) co-expressed in HEK293 in the absence or presence of EGFL7; quantitative western blot (Odyssey); n=3
[2] = target: V5-tagged Notch1 extracellular domain (UniProt Q01705); test: co-IP; Flag-tagged EGFL7 co-expressed with V5-tagged Notch ECDs or Notch1-ECD deletion mutants in HEK293; lysate immunoprecipitated with Immunosorb A overnight at 4 °C; quantitative western blot (Odyssey); n=3

The chains behind the UniProt entries cited, without tags or fusion partners. Residues count along the entry.
UniProt Q01705, residues 19-1725: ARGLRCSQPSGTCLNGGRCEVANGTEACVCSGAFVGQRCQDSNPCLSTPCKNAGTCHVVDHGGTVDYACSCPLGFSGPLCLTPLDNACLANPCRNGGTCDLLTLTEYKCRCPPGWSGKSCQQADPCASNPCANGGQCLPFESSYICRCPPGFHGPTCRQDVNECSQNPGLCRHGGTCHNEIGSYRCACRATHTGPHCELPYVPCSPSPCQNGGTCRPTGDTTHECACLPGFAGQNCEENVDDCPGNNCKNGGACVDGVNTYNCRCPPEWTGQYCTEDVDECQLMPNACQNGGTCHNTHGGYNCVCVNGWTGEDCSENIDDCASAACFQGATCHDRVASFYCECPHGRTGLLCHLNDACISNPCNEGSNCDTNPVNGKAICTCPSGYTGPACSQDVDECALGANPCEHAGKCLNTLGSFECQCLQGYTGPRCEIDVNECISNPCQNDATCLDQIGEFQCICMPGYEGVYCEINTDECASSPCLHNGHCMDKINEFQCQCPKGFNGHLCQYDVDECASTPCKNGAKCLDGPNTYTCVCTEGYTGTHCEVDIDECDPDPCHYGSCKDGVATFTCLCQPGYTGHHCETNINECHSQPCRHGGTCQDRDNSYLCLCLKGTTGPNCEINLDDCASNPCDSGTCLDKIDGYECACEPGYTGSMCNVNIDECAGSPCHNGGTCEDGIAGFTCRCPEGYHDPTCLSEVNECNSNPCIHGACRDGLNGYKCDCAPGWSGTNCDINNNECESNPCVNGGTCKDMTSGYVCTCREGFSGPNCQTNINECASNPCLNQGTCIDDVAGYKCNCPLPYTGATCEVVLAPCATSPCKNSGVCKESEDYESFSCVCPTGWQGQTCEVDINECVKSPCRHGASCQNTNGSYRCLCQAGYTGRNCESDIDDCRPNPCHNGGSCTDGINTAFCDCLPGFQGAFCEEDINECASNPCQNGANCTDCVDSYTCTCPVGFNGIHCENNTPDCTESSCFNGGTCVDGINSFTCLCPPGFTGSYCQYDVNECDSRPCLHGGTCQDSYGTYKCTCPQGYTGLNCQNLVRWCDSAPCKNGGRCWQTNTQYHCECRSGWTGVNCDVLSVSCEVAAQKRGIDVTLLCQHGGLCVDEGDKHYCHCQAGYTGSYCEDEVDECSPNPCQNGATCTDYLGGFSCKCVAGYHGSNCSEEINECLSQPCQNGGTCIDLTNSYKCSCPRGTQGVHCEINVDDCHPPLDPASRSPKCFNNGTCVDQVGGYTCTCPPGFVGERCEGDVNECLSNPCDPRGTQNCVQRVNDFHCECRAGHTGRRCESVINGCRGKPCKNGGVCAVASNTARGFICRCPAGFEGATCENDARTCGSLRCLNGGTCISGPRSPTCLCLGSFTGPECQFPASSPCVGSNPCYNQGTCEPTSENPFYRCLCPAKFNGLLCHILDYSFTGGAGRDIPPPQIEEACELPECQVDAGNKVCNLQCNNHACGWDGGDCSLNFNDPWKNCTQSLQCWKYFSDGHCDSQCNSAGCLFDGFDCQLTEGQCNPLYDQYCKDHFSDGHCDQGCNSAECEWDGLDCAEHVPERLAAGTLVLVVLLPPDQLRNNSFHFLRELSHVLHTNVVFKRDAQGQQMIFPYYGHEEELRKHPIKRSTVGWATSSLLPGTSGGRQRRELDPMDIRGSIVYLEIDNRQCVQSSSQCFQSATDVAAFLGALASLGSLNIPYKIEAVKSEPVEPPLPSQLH
UniProt Q9QXX0, residues 34-1218: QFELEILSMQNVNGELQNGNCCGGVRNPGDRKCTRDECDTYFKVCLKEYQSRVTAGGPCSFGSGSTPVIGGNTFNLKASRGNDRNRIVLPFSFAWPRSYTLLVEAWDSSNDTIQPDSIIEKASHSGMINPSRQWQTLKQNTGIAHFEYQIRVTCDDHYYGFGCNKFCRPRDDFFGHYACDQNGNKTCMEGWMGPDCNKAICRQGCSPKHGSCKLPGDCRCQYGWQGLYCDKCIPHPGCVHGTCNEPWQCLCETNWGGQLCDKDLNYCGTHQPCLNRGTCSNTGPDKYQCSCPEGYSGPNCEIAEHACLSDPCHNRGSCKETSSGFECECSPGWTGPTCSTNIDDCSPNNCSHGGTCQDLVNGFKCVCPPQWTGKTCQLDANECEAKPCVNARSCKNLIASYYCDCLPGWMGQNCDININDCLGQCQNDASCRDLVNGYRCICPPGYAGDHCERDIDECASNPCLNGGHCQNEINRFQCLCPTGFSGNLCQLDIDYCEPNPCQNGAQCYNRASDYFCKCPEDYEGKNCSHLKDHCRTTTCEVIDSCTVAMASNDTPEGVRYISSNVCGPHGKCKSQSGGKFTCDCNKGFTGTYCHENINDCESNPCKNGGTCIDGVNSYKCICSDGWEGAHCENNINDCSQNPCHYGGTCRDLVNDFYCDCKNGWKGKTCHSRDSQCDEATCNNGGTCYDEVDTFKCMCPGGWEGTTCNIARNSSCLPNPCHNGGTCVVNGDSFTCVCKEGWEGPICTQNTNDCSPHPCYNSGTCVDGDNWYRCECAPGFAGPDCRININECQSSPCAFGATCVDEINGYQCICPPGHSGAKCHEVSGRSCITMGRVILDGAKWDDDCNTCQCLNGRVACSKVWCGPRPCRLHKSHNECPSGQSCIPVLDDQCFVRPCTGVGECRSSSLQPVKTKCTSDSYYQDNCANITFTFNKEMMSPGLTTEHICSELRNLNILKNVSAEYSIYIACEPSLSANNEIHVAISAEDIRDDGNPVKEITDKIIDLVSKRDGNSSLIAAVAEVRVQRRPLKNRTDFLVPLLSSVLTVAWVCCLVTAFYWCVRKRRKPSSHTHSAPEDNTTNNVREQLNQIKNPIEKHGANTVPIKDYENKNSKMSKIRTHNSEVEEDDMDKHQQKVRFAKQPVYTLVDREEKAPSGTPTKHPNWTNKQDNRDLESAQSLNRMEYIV

Row | Molecule | binding [1] | binding [2]
1 | Flag-tagged Jagged1 (from UniProt Q9QXX0 34-1218) (ligand) | binds | –
2 | Flag-tagged EGFL7 (epidermal growth factor-like protein 7) (natural protein, UniProt Q9QXT5 22-275, looked up, epidermal growth factor-like protein 7 (EGFL7); the same molecule is used here; source: HEK293, transiently transfected, in lysate) EHVYRPSRRVCTVGISGGSISETFVQRVYQPYLTTCDGHRACSTYRTIYRTAYRRSPGVTPARPRYACCPGWKRTSGLPGACGAAICQPPCGNGGSCIRPGHCRCPVGWQGDTCQTDVDECSTGEASCPQRCVNTVGSYWCQGWEGQSPSADGTRCLSKEGPSPVAPNPTAGVDSMAREEVYRLQARVDVLEQKLQLVLAPLHSLASRSTEHGLQDPGSLLAHSFQQLDRIDSLSEQVSFLEEHLGSCSCKKDL | – | binds

— PMC5493759, “Neurovascular EGFL7 regulates adult neurogenesis in the subventricular zone and thereby affects olfactory perception” (Nature Communications, 2017)
